# Library screen at single concentrations

By UniProt entry, the sequences of proteins in these tests, tags left out. Residues count along the entry.
UniProt Q4DA54, 1-478: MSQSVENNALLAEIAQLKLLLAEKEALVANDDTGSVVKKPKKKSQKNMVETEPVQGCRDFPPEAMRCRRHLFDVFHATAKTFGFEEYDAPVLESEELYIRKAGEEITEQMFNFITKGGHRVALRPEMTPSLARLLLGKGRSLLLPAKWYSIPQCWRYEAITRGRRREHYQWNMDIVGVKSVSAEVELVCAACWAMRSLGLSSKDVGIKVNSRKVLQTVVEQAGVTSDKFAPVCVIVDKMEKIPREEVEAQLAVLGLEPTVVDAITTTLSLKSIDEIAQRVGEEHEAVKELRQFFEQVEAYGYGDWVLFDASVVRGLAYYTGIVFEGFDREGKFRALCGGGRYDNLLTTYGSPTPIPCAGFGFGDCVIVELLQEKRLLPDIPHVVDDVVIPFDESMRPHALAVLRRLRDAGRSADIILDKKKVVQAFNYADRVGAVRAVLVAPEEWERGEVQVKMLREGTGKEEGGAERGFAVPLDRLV
UniProt P9WNZ1, whole entry: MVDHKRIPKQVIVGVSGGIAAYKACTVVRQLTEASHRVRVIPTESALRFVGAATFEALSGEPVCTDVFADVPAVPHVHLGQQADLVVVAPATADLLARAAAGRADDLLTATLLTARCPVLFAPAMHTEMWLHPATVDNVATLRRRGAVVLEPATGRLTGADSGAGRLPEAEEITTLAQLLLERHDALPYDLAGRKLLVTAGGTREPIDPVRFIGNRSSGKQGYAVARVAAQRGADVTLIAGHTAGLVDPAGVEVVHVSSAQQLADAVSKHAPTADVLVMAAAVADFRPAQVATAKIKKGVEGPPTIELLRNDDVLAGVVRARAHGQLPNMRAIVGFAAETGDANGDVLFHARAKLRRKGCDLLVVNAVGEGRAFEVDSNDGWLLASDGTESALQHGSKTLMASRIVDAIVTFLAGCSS
UniProt A4I591, 1-473: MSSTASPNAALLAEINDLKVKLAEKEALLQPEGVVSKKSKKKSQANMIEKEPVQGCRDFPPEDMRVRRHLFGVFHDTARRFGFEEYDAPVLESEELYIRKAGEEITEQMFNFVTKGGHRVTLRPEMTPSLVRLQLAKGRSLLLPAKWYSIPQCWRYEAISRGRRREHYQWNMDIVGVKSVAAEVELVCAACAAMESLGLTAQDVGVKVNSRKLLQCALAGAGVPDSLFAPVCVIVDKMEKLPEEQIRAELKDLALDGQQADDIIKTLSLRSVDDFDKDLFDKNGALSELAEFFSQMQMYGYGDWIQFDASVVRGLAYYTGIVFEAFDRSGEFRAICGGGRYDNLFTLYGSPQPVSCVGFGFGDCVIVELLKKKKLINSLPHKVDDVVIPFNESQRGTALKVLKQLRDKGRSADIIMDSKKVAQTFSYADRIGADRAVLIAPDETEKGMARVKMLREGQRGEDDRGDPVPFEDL

Source: ChEMBL document CHEMBL3988442, “University of Dundee, Small-Polar-MMV Screening Library” (2021).

Each number is a percent effect as filed. How 0% and 100% were set is not recorded. Most values in the screen are low, and negative values occur. This is an unselected part of the compounds tested.

TcHisRS: 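Histidine-tRNA ligase, Trypanosoma cruzi CL Brener (UniProt Q4DA54). Enzyme assay of histidyl-tRNA synthetase; the read-out is not stated. Tested at 30 µM. The record gives no direction; compounds that gave an IC50 in retests scored well above the rest, so higher reads as stronger inhibition. Of about 69,000 compounds tested this way, about 31 (0.045%) reached 50% or more in at least one test.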
CoaBC: 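Coenzyme A biosynthesis protein CoaBC, Mycobacterium tuberculosis (UniProt P9WNZ1). Enzyme assay of CoaBC with a phosphate dye (Biomol Green) read at 650 nm. Compounds at 30 µM. Higher reads as stronger inhibition, judged from the few compounds that gave an IC50. Most strong results did not repeat in a second test. Of about 67,000 compounds tested this way, about 40 (0.06%) reached 50% or more in at least one test.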
LiHisRS: 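Enzyme assay of histidyl-tRNA synthetase; the read-out is not stated. Target: Histidine-tRNA ligase, Leishmania infantum (UniProt A4I591). Tested at 30 µM. Higher reads as stronger inhibition (inferred: compounds with an IC50 in retests scored well above the rest). The assay is labelled LdHisRS but filed under L. infantum. Size under these conditions: about 69,000 compounds, about 410 of them at 50% or above in at least one test.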

CN1[C@H]2CC[C@@H]1CN(C(=O)c1sccc1S(N)(=O)=O)CC2 read TcHisRS: 0.6369%; LiHisRS: -12.68%. For N#Cc1cc(F)ccc1CN1CCCCC1Cn1cncn1 (stereo not shown) the result was TcHisRS: 6.952%; CoaBC: 3.043%; LiHisRS: -0.5236%. With COCCN1CCC(C(=O)c2cc(F)ccc2F)CC1 the screen gave TcHisRS: 13.45%; CoaBC: 5.867%; LiHisRS: 27.27%. For Cc1cc(C(=O)NCc2ccnc(N3CCN(C)CC3)c2)no1 the result was TcHisRS: 14.12%; CoaBC: 3.069%; LiHisRS: 22.02%.

For CCc1nnc2n1CCN(CC(O)CN1CCC(C)CC1)C2 (stereo not shown) the result was TcHisRS: 4.433%; CoaBC: -11.71%; LiHisRS: 3.896%. O=C(c1ccc2c(c1)OCO2)N1CCCC(Nc2ccc(F)cc2)C1 (stereo not shown) read TcHisRS: -0.5025%; CoaBC: 2.774%; LiHisRS: 15.2%. For Cc1ccc(CN2C[C@@H]3COC[C@H](C(=O)N4CCCCO4)[C@@H]3C2)o1 the result was TcHisRS: 1.639%; CoaBC: -2.332%; LiHisRS: 12.41%. COCC(C)NC(=O)CN1CCCC1 (stereo not shown) read TcHisRS: 4.878%; CoaBC: 4.684%; LiHisRS: 8.434%.

COc1ccc(N(C)C(=O)c2cccc(S(C)(=O)=O)c2)cn1 gave TcHisRS: 6.667%; CoaBC: -2.941%; LiHisRS: 2.564%. O=C(NCc1ccco1)[C@@]12CCO[C@@H]1CCN(CC1CCOCC1)C2 gave TcHisRS: 9.804%; CoaBC: -1.954%; LiHisRS: 20%. With CN1C[C@@H]2CC[C@H](CC1=O)N2C(=O)c1cc2ccccc2[nH]c1=O the screen gave TcHisRS: 3.571%; CoaBC: 1.887%; LiHisRS: 19.47%. Result for O=C(c1ccsc1)N1CC[C@H]2C[C@@H](c3nnc(C4CC4)o3)O[C@@H]2C1 was TcHisRS: 2.174%; CoaBC: 2.915%; LiHisRS: 16.5%.

Fc1ccc(N2CCN(CCCc3cn[nH]c3)CC2)cc1 read TcHisRS: 2.646%; CoaBC: -6.561%; LiHisRS: -6.667%. With COCCN(C)C[C@@H]1CN(C(=O)c2c(C)cccc2OC)C[C@@H]1CO the screen gave TcHisRS: 8.163%; CoaBC: -0.1212%; LiHisRS: 17.74%. Cn1cc(-c2csc(N3CCSCC3)n2)cn1 read TcHisRS: 4.233%; CoaBC: 6.509%; LiHisRS: 9.091%. Result for c1cnc(NC[C@@H]2CCC[C@@H]3CN(Cc4cccnc4)C[C@@H]32)nc1 was TcHisRS: 0.5348%; CoaBC: -17.18%; LiHisRS: 5.769%.

With O=C(Nc1cccnc1)N1CCC(n2ccc(C(F)(F)F)n2)CC1 the screen gave TcHisRS: 0%; CoaBC: 7.036%; LiHisRS: 9.615%. CC(=O)Nc1cccc2c1ccn2CC(=O)Nc1n[nH]c(CC(C)C)n1 read TcHisRS: 3%; CoaBC: 4.6%; LiHisRS: 17.39%. For CCCOc1ccc(C(=O)Oc2cc(=O)n3cccc(C)c3n2)cc1 the result was TcHisRS: 2.439%; CoaBC: 0.2532%; LiHisRS: 10.53%. For CCCc1n[nH]c(C2CN(C(=O)C3=COCCC3)CCO2)n1 (stereo not shown) the result was TcHisRS: -1.515%; CoaBC: 12.19%; LiHisRS: 7.576%.

With CC(C)c1cc(NCC2(CO)CCC2)ncn1 the screen gave TcHisRS: 0%; CoaBC: -2.451%; LiHisRS: -11.11%. With Cc1nnc(NCC(c2cccs2)N2CCCC2)c(C#N)c1C (stereo not shown) the screen gave TcHisRS: 14.59%; CoaBC: 9.545%; LiHisRS: 32.88%. Cn1cccc1C(=O)NCc1cnc2n1CCN(C(=O)N1CCCC1)C2 read TcHisRS: 4.865%; CoaBC: -3.173%; LiHisRS: 16.98%. Cn1cccc1C(=O)N1CCCn2nc(CCC(=O)NC3CC3)cc2C1 gave TcHisRS: 8.543%; CoaBC: 0.6017%; LiHisRS: 8.989%.

With Cn1cc(C(=O)N2CC[C@@H]3[C@@H]2CCN3Cc2ccncc2)cn1 the screen gave TcHisRS: 9.184%; CoaBC: 1.854%; LiHisRS: 15%. O=C(CCc1nnc2ccccn2c1=O)NCc1cccnc1 gave TcHisRS: 1.98%; CoaBC: -1.205%; LiHisRS: 5.495%. CN(C)Cc1csc(-c2nccn2Cc2ccsc2)c1 read TcHisRS: 10.4%; CoaBC: -35.88%; LiHisRS: 13.27%. COc1cccc(CCC(=O)N2CCN(CC(C)(C)O)CC2)c1 gave TcHisRS: -18.93%; CoaBC: 3.422%; LiHisRS: 0%.

With COc1ccc(C#N)cc1CSCCN1CCOCC1 the screen gave TcHisRS: 8.511%; CoaBC: -0.4016%; LiHisRS: 1.493%. For CCc1c(C)nc2cc(C3CCN(Cc4ccncc4C)C3)nn2c1O (stereo not shown) the result was TcHisRS: 6.383%; CoaBC: 1.961%; LiHisRS: 19.79%. With O=C(NCCc1ccc(Cl)cc1)c1coc(CN2CCOCC2)c1 the screen gave TcHisRS: 3.191%; CoaBC: 4.418%; LiHisRS: 13.43%. Result for CSc1ccsc1C(=O)NCCNC(=O)C1CC1 was TcHisRS: 4.433%; CoaBC: 4.839%; LiHisRS: 19.74%.

Cc1ccc(C)c(CS(=O)(=O)CC(=O)Nc2ccc(F)cc2F)c1 gave TcHisRS: 0%; CoaBC: 0.2066%; LiHisRS: 5.479%.

2 of the entries, repeated:

{"compound": "O=C(CCc1nnc2ccccn2c1=O)NCc1cccnc1", "TcHisRS": 1.98, "CoaBC": -1.205, "LiHisRS": 5.495}
{"compound": "Fc1ccc(N2CCN(CCCc3cn[nH]c3)CC2)cc1", "TcHisRS": 2.646, "CoaBC": -6.561, "LiHisRS": -6.667}